Reference: PubChem BioAssay AID504786 (Drosophila RNAi Screening Center, 2011)
Purpose: 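Fly genes required for HIF-dependent transcription when hypoxia is mimicked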 (primary screen). Cell system: Drosophila S2 cells with a stable HIF luciferase reporter. Reagent: long dsRNA against Drosophila genes, about 0.2 µg dsRNA per well of a 384-well plate. Duration: three days of knock-down, then 20 h of DFO before reading. Treatment: desferrioxamine (DFO) at 100 µM, an iron chelator that mimics hypoxia, for 20 h. Detection: 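HIF reporter luminescence in cells given 100 µM DFO for 20 h, using the mouse ldh-a hypoxia-response element, scored as per-plate z-scores; higher means greater loss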. Reading the numbers: z-score: higher = stronger loss of HIF reporter signal.
The screen tested about 21,000 reagents; this is an unselected part of those with a known target gene and a result. 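Primary screen; positive scores mean lost reporter signal, so the sign may be inverted from the usual convention.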 Names joined by + are all predicted targets of the reagent. Not all columns of the deposit are shown.

With CG31211 (GeneID 41443) [SID104194745], how do the results read?
z-score, replicate 1: -0.4

Which result is listed for CG31211 (GeneID 41443) [SID104195136]?
z-score, replicate 1: -0.3

What is on record for CG11379 (GeneID 31062) [SID104198421]?
z-score, replicate 1: -0.3

How did the screen score Spn28Dc (GeneID 34091) [SID104182821]?
z-score, replicate 1: -0.3

What did the screen give for Mapmodulin (GeneID 37043) [SID104186748]?
z-score, replicate 1: -0.2

With CG14096 (GeneID 40113) [SID104189891], how do the results read?
z-score, replicate 1: -0.2

How did the screen score CG43078 (GeneID 38981) [SID104190084]?
z-score, replicate 1: -0.3

With CG43078 (GeneID 38981) [SID104190400], what does the deposit list?
z-score, replicate 1: -0.2

With Cht9 (GeneID 37392) [SID104183871], what was measured?
z-score, replicate 1: -0.2

For snRNA:U1:95Cc + snRNA:U1:95Cb [SID104193433], how do the results read?
z-score, replicate 1: -0.2

For Cyp12b2 (GeneID 37163) [SID104187156], what was measured?
z-score, replicate 1: -0.3

For Srx (GeneID 32768) [SID104199797], what was measured?
z-score, replicate 1: -0.3

What did the screen give for bgm (GeneID 44117) [SID104183287]?
z-score, replicate 1: 0.7

With Rh7 (GeneID 39389) [SID104190321], how do the results read?
z-score, replicate 1: -0.3

For Grd (GeneID 39984) [SID104190970], what does the deposit list?
z-score, replicate 1: 0

How did the screen score CG13893 (GeneID 38074) [SID104188155]?
z-score, replicate 1: -0.4

What did the screen give for CCHa1 (GeneID 41711) [SID104194613]?
z-score, replicate 1: 2

For tank (GeneID 33684) [SID104180253], what does the deposit list?
z-score, replicate 1: -0.2

How did the screen score CG32547 (GeneID 3346150) [SID104199055]?
z-score, replicate 1: 0.1

Which result is listed for CG32547 (GeneID 3346150) [SID104199057]?
z-score, replicate 1: -0.2

What is on record for CG32547 (GeneID 3346150) [SID104199266]?
z-score, replicate 1: -0.4

For CG32547 (GeneID 3346150) [SID104199418], how do the results read?
z-score, replicate 1: 0.8

How did the screen score CG10565 (GeneID 40332) [SID104191412]?
z-score, replicate 1: -0.3

What is on record for Rrp45 (GeneID 32665) [SID104199990]?
z-score, replicate 1: 0.7

How did the screen score CG7362 (GeneID 41787) [SID104196028]?
z-score, replicate 1: 0

For CG16825 (GeneID 34739) [SID104182318], how do the results read?
z-score, replicate 1: -0.4

What did the screen give for d4 (GeneID 35485) [SID104184673]?
z-score, replicate 1: -0.2

How did the screen score Men-b (GeneID 43936) [SID104196528]?
z-score, replicate 1: -0.5

With eIF2D (GeneID 64874) [SID104193708], what was measured?
z-score, replicate 1: -0.1

For TBC1d7 (GeneID 42869) [SID104195777], what was measured?
z-score, replicate 1: -0.6

With CG5290 (GeneID 39998) [SID104190293], how do the results read?
z-score, replicate 1: -0.4

What is on record for Arf6 (GeneID 36699) [SID104185713]?
z-score, replicate 1: -0.4

For Sid (GeneID 43390) [SID104196380], how do the results read?
z-score, replicate 1: -0.3

What is on record for CG4678 (GeneID 32652) [SID104199703]?
z-score, replicate 1: -0.2

How did the screen score CG4678 (GeneID 32652) [SID104199704]?
z-score, replicate 1: -0.2

Which result is listed for Cyp4d8 (GeneID 38841) [SID104190923]?
z-score, replicate 1: -0.3

What did the screen give for Cdk1 (GeneID 34411) [SID104183296]?
z-score, replicate 1: 4

For Acbp2 (GeneID 38784) [SID104190933], how do the results read?
z-score, replicate 1: -0.2

Which result is listed for Ir52a (GeneID 36715) [SID104186054]?
z-score, replicate 1: -0.3

Which result is listed for Dlish (GeneID 37014) [SID104185808]?
z-score, replicate 1: -0.3
